# Reference: PubChem BioAssay AID1159508 (Drosophila RNAi Screening Center, 2015)
# Aim: 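Viability reference data for a dsRNA library against RNA-binding protein genes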
# Cell system: Drosophila S2R+ cells
# Knock-down reagent: long dsRNA against Drosophila genes
# Timing: 5 days
# Measurement: 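Luminescent ATP signal as a proxy for cell fitness after 5 days of RNAi, given as a z-score in each replicate and averaged over replicates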
# Direction: mean ATP z-score and ATP z-score: higher = more total ATP luminescence
# Rule for the call: In these data the active calls have mean ATP z-score at about -2 or lower, or at about 2 or higher
# Calls: active = strong ATP change (up or down); inactive = no strong ATP change
# The deposit covers 812 reagents; shown is a random part of them. 18 of all reagents (2.2%) were called active. 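Calls include both increased and decreased ATP; roughly one in four reagents has no third replicate value.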 The numbers tell different reagents against one gene apart. Not all columns of the deposit are shown. Not stated in the record: the amount of reagent.
Target gene,dsRNA no.,mean ATP z-score,"ATP z-score, replicate 1",Outcome
eRF3 (eukaryotic translation release factor 3),1,2.38,2.12,active
eRF3 (eukaryotic translation release factor 3),2,0.225,-0.012,inactive
CG31368,1,0.0911,0.0542,inactive
CG31368,2,-0.326,-0.611,inactive
CG13690,1,-0.564,-0.814,inactive
CG13690,2,0.888,0.471,inactive
eEF1delta (eukaryotic translation elongation factor 1 delta),1,0.598,0.479,inactive
eEF1delta (eukaryotic translation elongation factor 1 delta),2,-0.179,-0.283,inactive
caz (cabeza),1,-0.0742,-0.142,inactive
caz (cabeza),2,-0.202,-0.47,inactive
c12.1,1,-0.461,-0.579,inactive
c12.1,2,0.00211,-0.142,inactive
Rm62,1,-0.0186,-0.355,inactive
Rm62,2,0.405,0.27,inactive
Syp (Syncrip),1,-0.537,-1.03,inactive
Syp (Syncrip),2,0.0126,-0.416,inactive
cpo (couch potato),1,1.31,0.471,inactive
cpo (couch potato),2,0.407,-0.268,inactive
CG9143,1,-0.344,-0.917,inactive
CG9143,2,-0.324,-0.556,inactive
CG11837,1,1.13,0.185,inactive
CG11837,2,-0.211,-0.96,inactive
CG13124,1,-0.033,-0.168,inactive
CG13124,2,-0.252,-0.416,inactive
CG2145,1,-0.521,-0.773,inactive
CG2145,2,-0.122,-0.222,inactive
Phax (Phosphorylated adaptor for RNA export),1,0.613,0.262,inactive
Phax (Phosphorylated adaptor for RNA export),2,0.601,0.423,inactive
pum (pumilio),1,0.755,-0.0336,inactive
pum (pumilio),2,0.534,0.319,inactive
bin3 (bicoid-interacting protein 3),1,-0.354,-0.421,inactive
bin3 (bicoid-interacting protein 3),2,0.391,-0.0571,inactive
"ash1 (absent, small, or homeotic discs 1)",1,-0.559,-0.748,inactive
"ash1 (absent, small, or homeotic discs 1)",2,0.239,0.203,inactive
NHP2,1,0.0775,-0.488,inactive
NHP2,2,-1.04,-1.33,inactive
clu (clueless),1,-0.168,-0.395,inactive
clu (clueless),2,-0.278,-0.406,inactive
eIF3f2 (eukaryotic translation initiation factor 3 subunit f2),1,0.917,0.726,inactive
eIF3f2 (eukaryotic translation initiation factor 3 subunit f2),2,-0.23,-0.379,inactive
Prp18,1,-0.0969,-0.322,inactive
Prp18,2,-0.186,-0.395,inactive

Laid out differently: results already given
Target gene	dsRNA no.	mean ATP z-score	ATP z-score, replicate 1	Outcome
CG13690	2	0.888	0.471	inactive
eEF1delta (eukaryotic translation elongation factor 1 delta)	1	0.598	0.479	inactive
eEF1delta (eukaryotic translation elongation factor 1 delta)	2	-0.179	-0.283	inactive
caz (cabeza)	1	-0.0742	-0.142	inactive
